This is one part of the list. Most entries show no effect beyond the scatter of the controls.
compound: Cc1nc(Nc2ncc(C(=O)Nc3c(C)cccc3Cl)s2)cc(N2CCN(CCO)CC2)n1 [dasatinib]; assay: log2 fold change of tryptic peptide abundance, ligand vs vehicle (limited proteolysis) (log2 ratio); higher = more trypsin-susceptible (destabilized); conditions: ligand concentration: 5 uM; sample: K562 cleared lysate

By UniProt entry, the sequences of proteins in these tests, tags left out. Where a name states a change or a piece, a line headed by the entry shows the natural chain unless it says otherwise.
UniProt Q9H2G2: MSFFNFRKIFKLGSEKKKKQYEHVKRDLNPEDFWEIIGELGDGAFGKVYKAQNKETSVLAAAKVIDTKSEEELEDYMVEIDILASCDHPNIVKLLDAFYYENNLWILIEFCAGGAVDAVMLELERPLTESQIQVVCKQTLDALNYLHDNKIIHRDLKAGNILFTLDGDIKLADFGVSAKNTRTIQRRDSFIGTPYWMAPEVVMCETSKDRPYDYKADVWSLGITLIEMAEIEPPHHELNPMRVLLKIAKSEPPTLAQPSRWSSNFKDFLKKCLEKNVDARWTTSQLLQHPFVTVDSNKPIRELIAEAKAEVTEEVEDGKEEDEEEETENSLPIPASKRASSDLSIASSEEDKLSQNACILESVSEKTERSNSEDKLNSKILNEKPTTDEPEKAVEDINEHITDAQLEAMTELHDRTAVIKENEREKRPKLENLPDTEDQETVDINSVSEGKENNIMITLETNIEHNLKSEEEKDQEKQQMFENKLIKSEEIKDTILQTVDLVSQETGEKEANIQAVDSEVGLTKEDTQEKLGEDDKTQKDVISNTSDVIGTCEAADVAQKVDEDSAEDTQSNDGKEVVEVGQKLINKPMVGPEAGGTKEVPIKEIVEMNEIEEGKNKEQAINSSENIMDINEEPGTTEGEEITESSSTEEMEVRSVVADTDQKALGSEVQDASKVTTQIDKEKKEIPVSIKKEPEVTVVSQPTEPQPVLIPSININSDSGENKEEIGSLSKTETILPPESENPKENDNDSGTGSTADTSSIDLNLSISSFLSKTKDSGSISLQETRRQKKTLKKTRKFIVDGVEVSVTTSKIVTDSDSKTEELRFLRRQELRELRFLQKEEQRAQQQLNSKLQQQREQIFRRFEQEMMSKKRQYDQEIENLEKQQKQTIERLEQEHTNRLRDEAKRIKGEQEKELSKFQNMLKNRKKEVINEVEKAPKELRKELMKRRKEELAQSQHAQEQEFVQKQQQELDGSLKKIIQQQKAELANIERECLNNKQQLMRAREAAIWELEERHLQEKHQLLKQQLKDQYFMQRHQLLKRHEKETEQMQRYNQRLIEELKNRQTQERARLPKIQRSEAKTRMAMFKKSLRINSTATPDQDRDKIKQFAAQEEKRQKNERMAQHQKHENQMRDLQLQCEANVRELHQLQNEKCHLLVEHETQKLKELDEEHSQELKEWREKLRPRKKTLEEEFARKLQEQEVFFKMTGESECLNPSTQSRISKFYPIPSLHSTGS
UniProt Q9H9T3: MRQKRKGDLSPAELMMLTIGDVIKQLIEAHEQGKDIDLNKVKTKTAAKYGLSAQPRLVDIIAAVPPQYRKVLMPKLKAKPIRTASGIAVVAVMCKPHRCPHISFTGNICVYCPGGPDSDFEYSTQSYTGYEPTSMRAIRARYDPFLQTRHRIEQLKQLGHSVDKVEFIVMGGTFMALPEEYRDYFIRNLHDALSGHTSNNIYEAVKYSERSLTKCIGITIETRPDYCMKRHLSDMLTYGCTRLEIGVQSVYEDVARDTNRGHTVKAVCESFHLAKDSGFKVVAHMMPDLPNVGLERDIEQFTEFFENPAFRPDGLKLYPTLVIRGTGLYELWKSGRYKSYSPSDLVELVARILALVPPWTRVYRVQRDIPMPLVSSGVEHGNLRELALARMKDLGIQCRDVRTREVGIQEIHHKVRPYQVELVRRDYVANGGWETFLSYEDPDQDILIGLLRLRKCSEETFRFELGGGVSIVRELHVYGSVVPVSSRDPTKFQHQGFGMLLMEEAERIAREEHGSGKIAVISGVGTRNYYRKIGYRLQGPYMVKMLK
UniProt Q9H9J4: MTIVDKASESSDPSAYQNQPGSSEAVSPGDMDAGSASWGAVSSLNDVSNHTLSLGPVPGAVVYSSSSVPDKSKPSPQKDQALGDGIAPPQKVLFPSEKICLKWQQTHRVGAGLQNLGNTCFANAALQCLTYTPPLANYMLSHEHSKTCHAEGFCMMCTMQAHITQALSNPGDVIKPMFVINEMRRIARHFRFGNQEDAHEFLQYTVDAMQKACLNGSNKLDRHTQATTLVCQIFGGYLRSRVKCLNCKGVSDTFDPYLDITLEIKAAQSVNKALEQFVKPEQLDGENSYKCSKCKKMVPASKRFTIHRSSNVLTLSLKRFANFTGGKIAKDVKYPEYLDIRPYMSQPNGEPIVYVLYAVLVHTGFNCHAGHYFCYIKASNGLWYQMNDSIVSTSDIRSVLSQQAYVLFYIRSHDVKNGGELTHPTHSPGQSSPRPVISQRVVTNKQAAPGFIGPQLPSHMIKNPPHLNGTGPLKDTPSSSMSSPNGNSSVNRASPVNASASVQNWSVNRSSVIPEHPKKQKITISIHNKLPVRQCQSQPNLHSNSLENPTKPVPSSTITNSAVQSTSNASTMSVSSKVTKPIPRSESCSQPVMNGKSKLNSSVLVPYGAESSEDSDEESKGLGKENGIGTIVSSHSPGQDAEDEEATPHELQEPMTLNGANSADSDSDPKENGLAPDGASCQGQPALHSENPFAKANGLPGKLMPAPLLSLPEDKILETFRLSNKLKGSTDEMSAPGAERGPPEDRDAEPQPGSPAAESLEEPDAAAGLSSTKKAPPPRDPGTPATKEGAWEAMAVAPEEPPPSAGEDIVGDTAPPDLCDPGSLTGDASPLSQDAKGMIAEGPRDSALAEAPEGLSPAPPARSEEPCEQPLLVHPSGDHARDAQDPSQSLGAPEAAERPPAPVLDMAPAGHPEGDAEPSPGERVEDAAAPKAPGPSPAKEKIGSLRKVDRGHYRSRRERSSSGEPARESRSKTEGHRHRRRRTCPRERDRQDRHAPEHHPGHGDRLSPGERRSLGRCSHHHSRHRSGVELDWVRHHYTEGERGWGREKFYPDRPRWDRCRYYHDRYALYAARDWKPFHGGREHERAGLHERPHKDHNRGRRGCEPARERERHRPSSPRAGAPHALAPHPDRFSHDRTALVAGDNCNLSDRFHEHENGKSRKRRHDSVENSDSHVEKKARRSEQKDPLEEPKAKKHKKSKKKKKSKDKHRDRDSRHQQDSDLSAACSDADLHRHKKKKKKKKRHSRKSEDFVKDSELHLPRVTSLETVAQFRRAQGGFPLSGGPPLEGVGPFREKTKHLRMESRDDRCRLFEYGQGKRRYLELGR
UniProt Q9H4I0: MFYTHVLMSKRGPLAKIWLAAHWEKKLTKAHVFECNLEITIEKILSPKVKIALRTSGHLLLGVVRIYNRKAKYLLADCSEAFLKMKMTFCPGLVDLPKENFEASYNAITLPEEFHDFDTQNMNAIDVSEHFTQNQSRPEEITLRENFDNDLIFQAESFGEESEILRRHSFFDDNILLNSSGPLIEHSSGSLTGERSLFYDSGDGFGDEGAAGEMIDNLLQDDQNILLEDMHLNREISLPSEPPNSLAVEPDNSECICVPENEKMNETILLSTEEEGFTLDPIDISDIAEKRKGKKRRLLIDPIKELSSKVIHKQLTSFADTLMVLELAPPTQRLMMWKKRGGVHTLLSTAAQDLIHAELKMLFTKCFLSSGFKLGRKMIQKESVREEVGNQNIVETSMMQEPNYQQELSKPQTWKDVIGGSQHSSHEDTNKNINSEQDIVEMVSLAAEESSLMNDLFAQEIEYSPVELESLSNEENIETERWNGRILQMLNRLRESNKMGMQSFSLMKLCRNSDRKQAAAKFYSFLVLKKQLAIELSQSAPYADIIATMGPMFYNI
UniProt Q9HBR0: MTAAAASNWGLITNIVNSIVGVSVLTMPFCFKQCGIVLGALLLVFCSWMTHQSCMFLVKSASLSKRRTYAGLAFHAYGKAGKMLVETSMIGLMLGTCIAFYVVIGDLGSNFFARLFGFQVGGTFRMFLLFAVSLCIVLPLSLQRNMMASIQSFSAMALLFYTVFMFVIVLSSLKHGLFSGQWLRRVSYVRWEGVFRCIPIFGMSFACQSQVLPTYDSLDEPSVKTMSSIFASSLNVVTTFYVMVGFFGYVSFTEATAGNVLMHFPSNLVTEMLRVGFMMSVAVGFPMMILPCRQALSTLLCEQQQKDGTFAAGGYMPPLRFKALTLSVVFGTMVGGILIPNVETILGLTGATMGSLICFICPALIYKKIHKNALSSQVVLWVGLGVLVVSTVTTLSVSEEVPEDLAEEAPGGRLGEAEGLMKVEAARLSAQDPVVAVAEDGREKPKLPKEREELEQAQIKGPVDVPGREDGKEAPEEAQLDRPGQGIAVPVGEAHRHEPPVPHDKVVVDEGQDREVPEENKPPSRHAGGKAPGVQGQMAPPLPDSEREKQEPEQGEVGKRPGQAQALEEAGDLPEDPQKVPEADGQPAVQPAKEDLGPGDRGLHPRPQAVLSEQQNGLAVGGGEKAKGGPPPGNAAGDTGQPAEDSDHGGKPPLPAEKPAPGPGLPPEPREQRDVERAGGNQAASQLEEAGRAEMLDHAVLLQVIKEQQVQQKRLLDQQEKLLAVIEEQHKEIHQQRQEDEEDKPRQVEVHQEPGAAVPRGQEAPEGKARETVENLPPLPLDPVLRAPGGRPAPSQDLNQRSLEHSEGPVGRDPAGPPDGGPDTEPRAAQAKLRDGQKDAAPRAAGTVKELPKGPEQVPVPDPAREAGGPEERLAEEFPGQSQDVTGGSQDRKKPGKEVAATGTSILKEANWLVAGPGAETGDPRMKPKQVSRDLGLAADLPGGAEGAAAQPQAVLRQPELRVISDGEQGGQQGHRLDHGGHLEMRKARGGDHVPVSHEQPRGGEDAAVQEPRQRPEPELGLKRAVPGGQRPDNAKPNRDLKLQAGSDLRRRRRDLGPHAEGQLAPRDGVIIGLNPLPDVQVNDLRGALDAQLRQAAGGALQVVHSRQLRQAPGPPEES
UniProt Q9H668: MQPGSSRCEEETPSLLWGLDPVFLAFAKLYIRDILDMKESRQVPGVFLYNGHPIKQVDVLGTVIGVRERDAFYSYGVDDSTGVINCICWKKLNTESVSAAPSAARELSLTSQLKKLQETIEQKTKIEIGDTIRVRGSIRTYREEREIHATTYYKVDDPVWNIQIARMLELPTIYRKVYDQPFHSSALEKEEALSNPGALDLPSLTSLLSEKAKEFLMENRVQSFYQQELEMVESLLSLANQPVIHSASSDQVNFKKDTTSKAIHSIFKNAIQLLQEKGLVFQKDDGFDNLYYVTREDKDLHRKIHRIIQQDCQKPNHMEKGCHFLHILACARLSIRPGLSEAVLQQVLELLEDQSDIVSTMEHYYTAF
UniProt Q9H999: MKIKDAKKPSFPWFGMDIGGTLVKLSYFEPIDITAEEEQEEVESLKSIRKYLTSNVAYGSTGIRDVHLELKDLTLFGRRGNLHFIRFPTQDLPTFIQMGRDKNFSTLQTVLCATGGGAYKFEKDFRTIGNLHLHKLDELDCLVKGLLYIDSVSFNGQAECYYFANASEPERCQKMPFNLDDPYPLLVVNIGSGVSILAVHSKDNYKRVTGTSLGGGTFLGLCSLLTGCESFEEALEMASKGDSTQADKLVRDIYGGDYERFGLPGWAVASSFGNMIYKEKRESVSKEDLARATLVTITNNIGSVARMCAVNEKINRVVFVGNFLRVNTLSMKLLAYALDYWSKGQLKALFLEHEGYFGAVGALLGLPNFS
UniProt Q9H4I2: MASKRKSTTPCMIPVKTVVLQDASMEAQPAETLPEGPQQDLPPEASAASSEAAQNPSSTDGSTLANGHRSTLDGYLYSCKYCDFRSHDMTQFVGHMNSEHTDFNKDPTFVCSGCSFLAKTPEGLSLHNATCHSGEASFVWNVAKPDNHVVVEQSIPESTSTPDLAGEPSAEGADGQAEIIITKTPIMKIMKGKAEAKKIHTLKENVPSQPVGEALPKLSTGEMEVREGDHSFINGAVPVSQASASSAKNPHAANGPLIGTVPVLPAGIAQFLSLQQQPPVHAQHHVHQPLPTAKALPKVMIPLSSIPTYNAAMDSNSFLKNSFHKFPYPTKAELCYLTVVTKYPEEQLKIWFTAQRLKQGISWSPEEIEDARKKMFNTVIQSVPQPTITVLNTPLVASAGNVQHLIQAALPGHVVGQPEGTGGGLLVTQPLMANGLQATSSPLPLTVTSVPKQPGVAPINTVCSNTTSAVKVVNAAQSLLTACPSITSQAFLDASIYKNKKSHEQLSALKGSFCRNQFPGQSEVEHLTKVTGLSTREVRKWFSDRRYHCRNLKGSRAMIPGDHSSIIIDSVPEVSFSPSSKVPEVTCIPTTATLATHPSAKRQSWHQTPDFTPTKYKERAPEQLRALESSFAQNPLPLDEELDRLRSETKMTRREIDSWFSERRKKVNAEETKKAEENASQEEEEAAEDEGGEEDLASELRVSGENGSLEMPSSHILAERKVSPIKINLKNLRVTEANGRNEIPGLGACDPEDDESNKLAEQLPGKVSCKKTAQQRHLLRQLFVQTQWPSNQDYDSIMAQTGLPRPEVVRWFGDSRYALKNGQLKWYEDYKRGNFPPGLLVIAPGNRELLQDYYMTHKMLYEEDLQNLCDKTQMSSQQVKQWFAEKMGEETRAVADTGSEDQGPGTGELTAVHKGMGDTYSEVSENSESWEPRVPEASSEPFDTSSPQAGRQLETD

Target | log2 fold change
UniProt Q9H773 (peptide sequence: CRVDLPLAVLSK, peptide start residue: 110) | -0.16
MRPL44 (peptide sequence: ELFEMWK, peptide start residue: 227) (UniProt Q9H9J2) | -0.0749
UniProt Q9H6D7 (peptide sequence: LKTQSELDR, peptide start residue: 254) | 0.552
MOV10 (peptide sequence: SVGVISPYRK, peptide start residue: 826) (UniProt Q9HCE1) | -0.342
SLK (peptide sequence: QTLDALNYLHDNK, peptide start residue: 138) (UniProt Q9H2G2) | -0.219
ELP3 (peptide sequence: HLSDMLTYGCTR, peptide start residue: 231) (UniProt Q9H9T3) | -0.487
UniProt Q9H5X1 (peptide sequence: HKLEIYISEGTHSTEEDINK, peptide start residue: 112) | 0.286
UniProt Q9HCH0 (peptide sequence: AGSESPHPGR, peptide start residue: 626) | -0.45
TDRD3 (peptide sequence: IFYNSGPK, peptide start residue: 525) (UniProt Q9H7E2) | -0.52
PLEKHF2 (peptide sequence: SFAVYAATATEKSEWMNHINK, peptide start residue: 108) (UniProt Q9H8W4) | 0.215
MED28 (peptide sequence: QTECFFLQK, peptide start residue: 90) (UniProt Q9H204) | 0.157
TAOK3 (peptide sequence: QLKHPNTIEYK, peptide start residue: 78) (UniProt Q9H2K8) | -1.06
ZNF768 (peptide sequence: SALIPHAR, peptide start residue: 414) (UniProt Q9H5H4) | 0.11
GOLPH3L (peptide sequence: KLQDSVLER, peptide start residue: 202) (UniProt Q9H4A5) | 0.14
CDC42EP4 (peptide sequence: SMGSHTTR, peptide start residue: 298) (UniProt Q9H3Q1) | -0.294
USP42 (peptide sequence: VTSLETVAQFR, peptide start residue: 1261) (UniProt Q9H9J4) | -0.5
UniProt Q9H1M0 (peptide sequence: DQSGLHYLQDADEEHVEISTR, peptide start residue: 160) | 0.576
FANCE (peptide sequence: GWEPFDWGR, peptide start residue: 54) (UniProt Q9HB96) | -0.212
UniProt Q9H4I0 (peptide sequence: ILQMLNR, peptide start residue: 486) | 0.138
HIPK2 (peptide sequence: TIIVPPLK, peptide start residue: 984) (UniProt Q9H2X6) | 0.109
SLC38A10 (peptide sequence: VISDGEQGGQQGHR, peptide start residue: 963) (UniProt Q9HBR0) | 0.0752
UniProt Q9H668 (peptide sequence: GCHFLHILACAR, peptide start residue: 321) | -0.167
PTGES2 (peptide sequence: AFLDFHALPYQVVEVNPVRR, peptide start residue: 118) (UniProt Q9H7Z7) | 0.147
PANK3 (peptide sequence: ESVSKEDLAR, peptide start residue: 282) (UniProt Q9H999) | -0.643
C11orf68 (peptide sequence: RMEPGEELEEEGSPGGR, peptide start residue: 41) (UniProt Q9H3H3) | 0.0703
OSBPL3 (peptide sequence: NFVFWQDVR, peptide start residue: 644) (UniProt Q9H4L5) | -0.274
ZHX3 (peptide sequence: SHEQLSALK, peptide start residue: 502) (UniProt Q9H4I2) | -0.123
